In PubChem BioAssay AID2551 (National Center for Advancing Translational Sciences (NCATS), 2010):
Several values for one entry are separate records, joined by “and”; a condition that tells them apart may be missing. Equal values may be shown once. Among all 310,000 compounds or so, about 17,000 (5.5%) were called active. Inconclusive results, whose numbers are uncertain, are shown with a selection of clear calls. Calls come from the whole dose curve; as a rule, active = well fitted inhibition curve with a large enough effect; inconclusive = small, poorly fitted or top-dose-only effect, or effect the other way; inactive = no such curve, though single readings can be large or run the other way. Potencies beside an inconclusive call are fits to weak or partial responses and may not hold up.

By UniProt entry, the sequences of proteins in these tests, tags left out. Where a name states a change or a piece, a line headed by the entry shows the natural chain unless it says otherwise.
UniProt P51450: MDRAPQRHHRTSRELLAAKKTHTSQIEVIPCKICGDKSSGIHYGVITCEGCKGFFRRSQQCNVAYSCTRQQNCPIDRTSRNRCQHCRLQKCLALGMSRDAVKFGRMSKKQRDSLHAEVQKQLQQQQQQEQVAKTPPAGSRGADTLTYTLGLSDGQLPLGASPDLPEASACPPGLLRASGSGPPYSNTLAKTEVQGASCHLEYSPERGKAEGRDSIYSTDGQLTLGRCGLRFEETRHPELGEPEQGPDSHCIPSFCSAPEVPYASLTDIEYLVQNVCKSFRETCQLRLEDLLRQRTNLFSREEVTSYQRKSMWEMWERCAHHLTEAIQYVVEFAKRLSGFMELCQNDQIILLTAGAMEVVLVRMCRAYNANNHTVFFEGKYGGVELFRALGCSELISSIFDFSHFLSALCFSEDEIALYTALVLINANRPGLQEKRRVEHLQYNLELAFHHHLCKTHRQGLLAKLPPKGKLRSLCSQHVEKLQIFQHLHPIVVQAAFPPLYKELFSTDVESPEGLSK

These compounds were tested against Nuclear receptor ROR-gamma (Mus musculus) (UniProt P51450) (assay: qHTS for inhibitors of ROR gamma transcriptional activity). Settings: Drosophila S2 Gal4-RORgamma UAS-luciferase reporter, 20 h; series mostly up to 53.6 µM.
Method in brief: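 Luminescence from a UAS-regulated Photinus luciferase reporter in stably transfected Drosophila Schneider cells is measured; decreased signal marks ROR gamma inhibition. Fusion expression is induced by 700 uM copper sulfate for 20 hr.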
Note: nearly all actives have a fitted effect of over 60% in size.
Potency is the fitted concentration of half-maximal effect.

Row | Structure (SMILES) | Potency
1 | COc1cc(C(=O)NCc2cc3cc(Cl)ccc3n2C)cc(OC)c1OC | inconclusive: 17.8 µM [activator, partial curve]
2 | CN1C(=O)C(O)(CC(=O)c2ccc(F)cc2)c2cc(Br)ccc21 (stereo not drawn) | inactive
3 | Cc1ccc(S(=O)(=O)CCSc2cccc(C(=O)Nc3ccccc3C(=O)O)c2)cc1 | inconclusive: 31.6 µM [activator, single point]
4 | c1ccc(C2Oc3ccccc3C3CC(c4cccs4)=NN32)cc1 (stereo not drawn) | inconclusive: 35.5 µM [inhibitor, single point]
5 | CCOC(=O)c1sc(NC(=O)CCc2ccccc2)nc1C | inactive
6 | COc1cc(/C=C2/C(=N)N3N=C(C(C)C)SC3=NC2=O)ccc1OS(=O)(=O)c1ccccc1 | inconclusive: 35.5 µM [inhibitor, single point]
7 | Cc1cc(Br)c2c(c1)/C(=C/C(=O)c1cccs1)C(=O)N2 | active: 11.2 µM
8 | O=c1c2ccccc2nc2c3ccccc3cnn12 | inactive
9 | COc1cccc(NC(=S)N/N=C2\CC(C)(C)Oc3ccc(O)cc32)c1 | active: 7.08 µM
10 | CC[C@H](C)[C@H](NC(=O)[C@H](Cc1ccc(O)cc1)NC(=O)[C@@H](NC(=O)[C@@H](N)CCCN=C(N)N)C(C)C)C(=O)N[C@@H](Cc1cnc[nH]1)C(=O)N1CCC[C@H]1C(=O)N[C@@H](Cc1ccccc1)C(=O)O | inactive
11 | O=C(CC12CC3CC(CC(C3)C1)C2)N/N=C\c1ccc[nH]1 | active: 7.94 µM
12 | COc1cc(Cl)ccc1OCc1cc(C(=O)NC(C)Cc2cnccn2)no1 (stereo not drawn) | inconclusive: 0.355 µM [activator, full curve, poor fit]
13 | O=C(CCCCCNc1nc(=S)[nH]c2ccccc12)NCCc1c[nH]c2ccccc12 | inconclusive: 17.8 µM [inhibitor, single point]
14 | Cc1ccccc1CC1(CO)CCCN(C(=O)CCC(=O)c2ccccc2)C1 (stereo not drawn) | inconclusive: 14.1 µM [activator, partial curve, poor fit]
15 | CCc1nnc(NC(=O)COc2ccc(N(C)S(=O)(=O)c3ccc(C)cc3)cc2)s1 | inconclusive: 22.4 µM [inhibitor, single point]
16 | COc1ccc2c(c1)CCc1c(C(=O)Nc3c(C)nn(Cc4ccccc4)c3C)noc1-2 | inconclusive: 35.5 µM [activator, single point]
17 | O=C(CCc1ccccc1)NNC(=S)NC(=O)c1ccc(Cl)cc1 | active: 12.6 µM
18 | CCCCCCCCCCOC(=O)Cn1c(COc2ccc(OC)cc2)[n+](C)c2ccccc21 | inconclusive: 3.16 µM [inhibitor, single point] and inconclusive: 22.4 µM [inhibitor, single point]

2 entries from above, field by field.
COc1cc(Cl)ccc1OCc1cc(C(=O)NC(C)Cc2cnccn2)no1 (stereo not drawn)
  Potency: inconclusive: 0.355 µM [activator, full curve, poor fit]
O=C(CCCCCNc1nc(=S)[nH]c2ccccc12)NCCc1c[nH]c2ccccc12
  Potency: inconclusive: 17.8 µM [inhibitor, single point]
